This is one part of the list. Repeats are few or missing, and single values can be far off.
Each compound was assayed on Geomyces destructans (assay: growth inhibition relative to DMSO control; higher = stronger growth inhibition). Details: 10 µM; 15 °C; incubation time 10 days.

SMILES	growth inhibition
O=C(O)C1(C(=O)O)CCC1.[NH2-].[NH2-].[Pt+2]	-4.41%
CC(=O)Nc1cccc(O)c1	0.678%
O=c1c(O)c(-c2ccc(O)c(O)c2)oc2cc(O)cc(O)c12	-30.7%
CC/C(=C(\c1ccccc1)c1ccc(OCCN(C)C)cc1)c1ccccc1	-6.87%
CN[C@@H]1[C@H](O[C@H]2[C@H](O[C@H]3[C@H](O)[C@@H](O)[C@H](NC(=N)N)[C@@H](O)[C@@H]3NC(=N)N)O[C@@H](C)[C@]2(O)CO)O[C@@H](CO)[C@H](O)[C@H]1O	-4.04%
NCc1ccc(S(N)(=O)=O)cc1	1.77%
CC(C)(C)NCC(O)c1cc(O)cc(O)c1 (stereo not given)	20.5%
COc1ccc2c(c1)O[C@@H]1COc3cc(OC)c(OC)cc3[C@@H]1C2=O	-9.49%
CCOC(=O)[N-]c1c[n+](N2CCOCC2)no1	-36.1%
C#C[C@]1(O)CC[C@H]2[C@@H]3CCC4=C(CCC(=O)C4)[C@H]3CC[C@@]21C	-20.8%
COc1cc(OC)c(-c2c(OC)cc(OC)cc2OC)c(OC)c1	-13.5%
CC(C(=O)O)c1ccc(C(=O)c2cccs2)cc1 (stereo not given)	-2.54%
CN1CCC[C@@H]1CCO[C@](C)(c1ccccc1)c1ccc(Cl)cc1	-28.4%
CC(=O)O[C@@H]1C[C@H]2C(C)(C)[C@H](O)C[C@H](O)[C@]2(C)[C@H]2CC[C@@]3(C)[C@H](c4ccoc4)OC(=O)[C@H]4O[C@]43[C@@]21C	11.1%
COc1cc2c(cc1-c1coc3c4c(c(OC)cc3c1=O)OC(C)(C)C=C4)OCO2	-12.2%
O=C(O)c1cccnc1C(=O)O	-3.47%
CCN(CCO)CCCC(C)Nc1ccnc2cc(Cl)ccc12 (stereo not given)	-6.96%
CON	-8.94%
CN(C)c1ccc(C(=C2C=CC(=[N+](C)C)C=C2)c2ccc(N(C)C)cc2)cc1	84.1%
CC(=O)[C@H]1CC[C@H]2[C@@H]3CC=C4C[C@@H](O)CC[C@]4(C)[C@H]3CC[C@]12C	-6.2%
COc1cc(O)c2c(=O)cc(-c3ccc(O)cc3)oc2c1	-5.33%
O=c1ccn([C@@H]2O[C@H](COP(=O)(O)OP(=O)(O)OP(=O)(O)O)[C@@H](O)[C@H]2O)c(=O)[nH]1	-10.4%
CC12CCCC(O)(C1)C1CC(C)(C)C1CC2 (stereo not drawn) [beta-CARYOPHYLLENE ALCOHOL]	-2.16%
Cc1cc(=O)oc2c(O)c(O)ccc12	-8.55%
CC(COc1ccccc1)NC(C)C(O)c1ccc(O)cc1 (stereo not given)	-2.21%

SMILES	growth inhibition
CC[C@@H](C(=O)[C@@H](C)[C@@H](O)[C@H](C)CCc1ccc(C)c(O)c1C(=O)O)[C@H]1O[C@](CC)([C@H]2CC[C@](O)(CC)[C@H](C)O2)C[C@@H]1C	-3.79%
O=c1c(-c2cc(O)c(O)c(O)c2)coc2cc(O)c(O)c(O)c12	-23.6%
CC(=O)O[C@@H]1CC2C(C)(CC[C@H](O)C2(C)C)C2CC[C@]3(C)C(=CC(=O)O[C@H]3c3ccoc3)C21C (stereo partly drawn) [3beta-HYDROXYDEOXODIHYDRODEOXYGEDUNIN]	2.83%
CC1(C)[C@@H](O)CC[C@]2(C)[C@H]3C(=O)C=C4[C@H]5C[C@@](C)(C(=O)O)CC[C@]5(C)CC[C@@]4(C)[C@]3(C)CC[C@@H]12 [18alpha-GLYCYRRHETINIC ACID]	-3.58%
CCCCN1CCCCC1C(=O)Nc1c(C)cccc1C (stereo not given)	-3.71%
CCOC(=O)NNc1nncc2ccccc12	-4.94%
Nc1ccn([C@@H]2O[C@H](CO)[C@@H](O)[C@@H]2O)c(=O)n1	-9.22%
CC1(C)[C@H]2CC[C@]1(C)C(=O)C2	-3.93%
O=C(O)[C@H](O)[C@@](O)(Cc1ccc(O)cc1)C(=O)O	-8.82%
Nc1ccc(S(=O)(=O)Nc2ccccn2)cc1	-1.25%
CO[C@H]1C[C@H](O[C@H]2[C@H](C)[C@@H](O[C@@H]3O[C@H](C)C[C@H](N(C)C)[C@H]3O)[C@@H](C)C[C@@]3(CO3)C(=O)[C@H](C)[C@@H](O)[C@@H](C)[C@@H](C)OC(=O)[C@@H]2C)O[C@@H](C)[C@@H]1O	-30.9%
CCOC(=O)c1c(C)cc(O)cc1O	-4.12%
CN(C)CCCN1c2ccccc2Sc2ccc(Cl)cc21	-3.41%
O=c1ccc2ccccc2o1	-4.29%
CC1(C)C=Cc2cc3ccc(=O)oc3cc2O1	-8.86%
COc1cc([C@@H]2c3cc4c(cc3[C@@H](O[C@@H]3O[C@@H]5CO[C@@H](c6cccs6)O[C@H]5[C@H](O)[C@H]3O)[C@H]3COC(=O)[C@H]23)OCO4)cc(OC)c1O	-7.02%
O=c1[nH]cnc2c1ncn2[C@@H]1O[C@H](CO)[C@@H](O)[C@H]1O	0.578%
CCN(CC)CCNc1ccc(CO)c2sc3ccccc3c(=O)c12	-19.8%
O=c1c(O)cc([C@H]2Oc3cc(O)cc(O)c3C[C@H]2O)cc2c([C@H]3Oc4cc(O)cc(O)c4C[C@H]3O)cc(O)c(O)c12	-12.6%
CN(Cc1cnc2nc(N)nc(N)c2n1)c1ccc(C(=O)N[C@@H](CCC(=O)O)C(=O)O)cc1	9.86%
O=C(COc1ccc(Cl)cc1)N1CCN(Cc2ccc3c(c2)OCO3)CC1	-0.242%
O=C(O)CCCC[C@@H]1CCSS1 (racemic)	-13.2%
COc1cc(-c2oc3cc(O)ccc3c(=O)c2O)cc(OC)c1OC	-15.7%
Cc1ccsc1/C=C/C1=NCCCN1C	-10%
CN(C)c1ccc(O)c2c1C[C@H]1C[C@H]3[C@H](N(C)C)C(O)=C(C(N)=O)C(=O)[C@@]3(O)C(O)=C1C2=O	-4.71%

Grouped by structure: the compounds so far containing a Cl atom
SMILES	growth inhibition
CN1CCC[C@@H]1CCO[C@](C)(c1ccccc1)c1ccc(Cl)cc1	-28.4%
CCN(CCO)CCCC(C)Nc1ccnc2cc(Cl)ccc12 (stereo not given)	-6.96%
CN(C)CCCN1c2ccccc2Sc2ccc(Cl)cc21	-3.41%
O=C(COc1ccc(Cl)cc1)N1CCN(Cc2ccc3c(c2)OCO3)CC1	-0.242%

More results.

SMILES	growth inhibition
COc1cccc(OC)c1C(=O)N[C@@H]1C(=O)N2[C@@H]1SC(C)(C)[C@@H]2C(=O)O	-14.8%
Cc1ccc(S(=O)(=O)NC(=O)NN2CCCCCC2)cc1	-3.78%
CC(C)CCCC(C)C1CCC2C3=CCC4CC(O)CCC4(C)C3CCC21C (stereo not given)	-6.28%
CCOC(=O)c1ccc(N)cc1	-32.3%
CCN(CC)CCOC(=O)C(c1ccccc1)c1ccccc1	-10.5%
CC(C)(C)CC(C)(C)c1ccc(O)c(Cc2ccc(Cl)cc2Cl)c1	-0.324%
COC(=O)[C@@H]1OC(=O)[C@H]2O[C@@]23[C@@]1(C)CCC1[C@@]2(C)CCC(=O)C(C)(C)C2C[C@@H](OC(C)=O)[C@]13C (stereo not given in full)	-6.96%
CCCCC1(COC(=O)CCC(=O)O)C(=O)N(c2ccccc2)N(c2ccccc2)C1=O	0.66%
COc1cc(NC(C)CCCN)c2ncccc2c1 (stereo not given)	-3.71%
CN(C)[C@@H]1C(O)=C(C(N)=O)C(=O)[C@@]2(O)C(O)=C3C(=O)c4c(O)cccc4[C@@](C)(O)[C@H]3[C@H](O)[C@@H]12	-31.9%
COC1(C)CCC2OC2(C)CCC2C1CC2(C)C (stereo not given)	-5.08%
NC(N)=Nc1nc(CSCC/C(N)=N/S(N)(=O)=O)cs1	-30.7%
Cc1cc(-c2ccccc2)nnc1NCCN1CCOCC1	-6.98%
COc1ccc(-c2cc(=O)c3c(OC(C)=O)cc(OC(C)=O)cc3o2)cc1	5.98%
CC1=C(/C=C/C(C)=C/C=C/C(C)=C\C(=O)O)C(C)(C)CCC1	-36.5%
CC/C(=C(/CC)c1ccc(O)cc1)c1ccc(O)cc1	-4.04%
CSc1ccc2c(c1)N(CCC1CCCCN1C)c1ccccc1S2 (stereo not given)	-16%
O=C(/C=C/c1ccc(O)c(O)c1)O[C@@H]1C[C@](O)(C(=O)O)C[C@@H](O)[C@H]1O	8.93%
CC12CCC3c4ccc(OCc5ccccc5)cc4CCC3C1C[C@@H](O)[C@@H]2O (stereo not given in full)	-11.2%
N=C(N)NCCN1CCCCCCC1	2.07%
Cc1cc(=O)c2c(o1)-c1c(cc(O)c(O)c1C(=O)O)OC2	-20.2%
CC(CN(C)C)CN1c2ccccc2Sc2ccccc21 (stereo not given)	-25.4%
CC1(C)[C@@H](OC(=O)CCC(=O)O)CC[C@]2(C)[C@H]3C(=O)C=C4[C@@H]5C[C@@](C)(C(=O)O)CC[C@]5(C)CC[C@@]4(C)[C@]3(C)CC[C@@H]12	-11.2%
COc1cc(O)ccc1C(C)=O	-18.4%
COc1ccc(-c2cc(=O)c3ccccc3o2)cc1OC	-10.2%

3 entries picked at random from the list so far, as already listed:
SMILES	growth inhibition
O=c1c(-c2cc(O)c(O)c(O)c2)coc2cc(O)c(O)c(O)c12	-23.6%
COc1cc([C@@H]2c3cc4c(cc3[C@@H](O[C@@H]3O[C@@H]5CO[C@@H](c6cccs6)O[C@H]5[C@H](O)[C@H]3O)[C@H]3COC(=O)[C@H]23)OCO4)cc(OC)c1O	-7.02%
Cc1ccsc1/C=C/C1=NCCCN1C	-10%

Later entries:

SMILES	growth inhibition
CC(=O)OCC(=O)[C@H]1CC[C@H]2[C@@H]3CCC4=CC(=O)CC[C@]4(C)[C@H]3CC[C@]12C	-32.3%
Nc1ccccc1C(=O)CC(N)C(=O)O (stereo not given)	11.9%
CC[C@@H](CO)NCCN[C@@H](CC)CO	4.21%
CC1(C)Oc2ccc3ccc(=O)oc3c2CC1O (stereo not given)	-4.14%
NC(=O)c1cccc(N)c1	-15%
COc1ccc2oc3ccccc3c(=O)c2c1	-17.2%
Cc1cc(O)c2c(O)c3c(O)cccc3cc2c1	-7.99%
C=CCSCC1Nc2cc(Cl)c(S(N)(=O)=O)cc2S(=O)(=O)N1 (stereo not given)	-17.8%
CC(=O)c1ccc(O)c(CC=C(C)C)c1	17%
c1ccc(CN(CC2=NCCN2)c2ccccc2)cc1	-42.7%
N[C@@H](C(=O)O)[C@@H](O)[C@H](O)[C@H](O)CO	-7.78%
COc1c(N2CCNC(C)C2)c(F)cc2c(=O)c(C(=O)O)cn(C3CC3)c12 (stereo not given)	-43.7%
O=C(c1ccccc1)c1ccc2n1CCC2C(=O)O (stereo not given)	-3.34%
OCc1ccccc1O	-17.1%
CC1(C)CC2C1CCC1(C)OC2(C)CCC1O (stereo not given)	-20.9%
CN1Cc2c(N)cccc2C(c2ccccc2)C1 (stereo not given)	-2.37%
COc1ccccc1OCC(O)COC(N)=O (stereo not given)	43.3%
Nc1c2c(nc3ccccc13)CCCC2O (stereo not given)	-2.54%
Cc1cc(N)c2ccccc2[n+]1CCCCCCCCCC[n+]1c(C)cc(N)c2ccccc21	82.4%
CNc1ccccc1C(=O)N1CCc2c([nH]c3ccccc23)C1=O	-4.45%
COc1ccc2c(=O)c(CC(=O)O)coc2c1	-8.34%
COc1ccc2cc(C(C)C(=O)O)ccc2c1 (single isomer, unassigned; (+))	-0.0519%
NCCNC(=O)c1ccc(Cl)cc1	-12.2%
N=C(N)NC(=O)c1nc(Cl)c(N)nc1N	-38.5%
CC(=O)O[C@H]1CC[C@]2(C)C(C[C@@H](OC(C)=O)[C@]3(C)C4=CC(=O)O[C@H](c5ccoc5)[C@@]4(C)CCC23)C1(C)C (stereo partly drawn) [3-DEOXO-3beta-ACETOXYDEOXYDIHYDROGEDUNIN]	-9.65%
